In paper PMC4912613, “A broad analysis of resistance development in the malaria parasite” (Nature Communications, 2016):

Experiments:
Assay type in all cases: cell-based, Plasmodium falciparum
[1] = system: PfATP4-Mut3 (PfATP4 F917L, parent 3D7); test: Cross-resistance EC50 assay, PfATP4-Mut3; details: hypoxanthine 48-hour assay; synchronized parasites; 96-well format; strain PfATP4 Mut3
Text: (§1) To evaluate potential overlapping activity against known antimalarial drug targets, we performed dose-response studies with each compound against our assembled set of drug-resistant lines and their corresponding parents, in an asexual blood stage proliferation assay (Table 1). Comparisons were made to the drug-sensitive strain 3D7 when a parent was unavailable (TM90C2A, W2 and Dd2). As laboratories conducted EC50 assays with different strains and protocols, all comparisons were made between assays from the same laboratory and under the same assay conditions. Compounds displaying >5-fold EC50 shifts relative to the parent or sensitive strain were flagged as having potentially non-novel targets. Average fold shifts per strain ranged from 0.82 to 2.34, with a median of 1.23 indicating there was not common resistance to any one resistant clone. No resistance patterns were observed when classifying the compounds based on chemical structure, but this was not surprising given the diversity of compounds chosen. On the other hand, given that these confirmed compounds were derived from larger unconfirmed hit lists to which some filtration criteria may have been applied (for example, elimination of obvious dihydrofolate reductase inhibitors[32]), some[10][11][12][13] pre-existing bias may exist in the set.
(§2) The 48-h assay was carried out in a 96-well format following standard methods using the ^3H-hypoxanthine incorporation assay. The raw EC50 values corresponding to this assay can be found in Supplementary Data 3. Briefly, this assay relies on the parasite incorporation of labelled hypoxanthine that is proportional to P. falciparum growth. A culture of parasitized RBCs (0.5% parasitemia with a percentage of ring stage higher than 70% of total parasitemia, 2.0% haematocrit) in RPMI-1640, […] and 5 μM hypoxanthine was exposed to drug serial dilutions. Plates were incubated for 24 h at 37 °C, 5% CO2, 5% O2 and 90% N2. After 24 h of incubation, ^3H-hypoxanthine was added and plates were incubated for an additional 24-h period. After that, parasites were harvested on a glass fibre filter using a TOMTEC Cell Harvester 96. Filters were dried and melt-on scintillator sheets were used to determine the incorporation of ^3H-hypoxanthine. Radioactivity was measured using a microbeta counter. Data were normalized using the incorporation of the positive (parasitized RBCs without drug) and negative (same culture with artesunate at 2 μM) controls. All assays were conducted in triplicate using three independently grown cultures, and EC50 values were determined using the XLfit add-in module for Excel (version 2.3.1) from Grafit (version 5.3.1.3), where parameter h is the assay hill slope, x is the compound concentration and y is the inhibition of growth effect. The XLfit equation is: […]
(§3) Alternatively, a SYBR Green-based proliferation approach was used for the 72-h assay, as previously described. Briefly, a culture of either synchronized or asynchronous parasitized RBCs (0.3% parasitemia and 4% haematocrit) in screening medium (identical to supplemented medium above except no serum was added) was exposed to serial drug dilutions. Plates were incubated at 37 °C and gassed with 93% N2, 4% CO2 and 3% O2 for 72 h. Following incubation, 10 × SYBR Green I (Invitrogen; supplied in 10,000 × concentration) in lysis buffer ([…], 5 mM EDTA, 0.16% Saponin wt per vol and 1.6% Triton X vol per vol) was added to the wells and the plates were incubated overnight at room temperature before plate reading. EC50 assays were repeated three times, taking the average EC50 value from each assay set, and removing any outliers using a single iteration of Grubbs' test, eliminating values with z-scores above the critical z-value (α=0.05). The raw EC50 values for synchronized parasites assayed in a 384-well format are listed in Supplementary Data 4. The raw EC50 values for asynchronous parasites assayed in a 96 or 1536-well format are listed in Supplementary Data 5. […]

W2 = test: Cross-resistance EC50 assay, W2 parent; details: hypoxanthine 48-hour assay; synchronized parasites; 96-well format; strain W2F6 (parent)
Text: (§4) Multidrug resistance alleles, including mutations in P. falciparum chloroquine resistance transporter (pfcrt) and P. falciparum multi-drug resistance transporter 1 (pfmdr1) are very common in field isolates. Therefore, we sought to assess the degree to which pre-existing resistance alleles would contribute to a loss of potency for this diverse collection of small molecule compounds. Fifteen clones derived from three main parent lines were chosen to maximize diversity in mutated pathways and genetic backgrounds, thus representing the variety of resistance seen in the field: 3D7 (ref. [23]), W2 (ref. [24]) or Dd2 (ref. [25]). The 3D7 line originates from the clone of a Netherlands clinical isolate strain[23][26] and is generally considered to be drug sensitive, though it does convey resistance to sulfadoxine. Conversely, W2 (ref. [24], [27]) and Dd2 (ref. [25]) are multi-drug-resistant lines originating from the Indochina III/CDC isolate, which contain point mutations in pfcrt as well as amplifications in pfmdr1 and GTP cyclohydrolase.
as §1, §2
(§5) Alternatively, a SYBR Green-based proliferation approach was used for the 72-h assay, as previously described. […]

3D7 = test: Cross-resistance EC50 assay, 3D7 parent / sensitive strain
Text: as §4, §1, §2, §5

[2] = system: PfATP4-Mut1 (PfATP4 V178I, parent W2); test: Cross-resistance EC50 assay, PfATP4-Mut1; details: hypoxanthine 48-hour assay; synchronized parasites; 96-well format; strain PfATP4 Mut1
Text: as §1, §2, §3

[3] = system: TM90C2A (DHFR, folate pathway; compared with 3D7); test: Cross-resistance EC50 assay, TM90C2A; parameters: unit not given beside the values; details: hypoxanthine 48-hour assay; synchronized parasites; 96-well format; strain TM90C2A
Text: as §1, §2
(§6) EC50 values for each strain were compared with those of the corresponding parent strain to determine fold-shift changes and identify resistance. To minimize the cause variance between assays, all comparisons were conducted between strains assayed under identical conditions. A one-way ANOVA followed by a Dunnet's post-test was conducted in GraphPad Prism to identify significant changes between the parent and resistant strain.

[4] = system: PfATP4-Mut2 (PfATP4 P412L, parent W2); test: Cross-resistance EC50 assay, PfATP4-Mut2; details: hypoxanthine 48-hour assay; synchronized parasites; 96-well format; strain PfATP4 Mut2
Text: as §1, §2, §3

[5] = system: GNF156R (PfCARL L830V, S1076I and M81I, parent Dd2); test: Cross-resistance EC50 assay, GNF156R; details: SYBR green 72 hour assay, asynchronized parasites, 96-well or 1536-well format
Text: as §1, with “set. […]” for “set.”
(§7) Alternatively, a SYBR Green-based proliferation approach was used for the 72-h assay, as previously described. Briefly, a culture of either synchronized or asynchronous parasitized RBCs (0.3% parasitemia and 4% haematocrit) in screening medium (identical to supplemented medium above except no serum was added) was exposed to serial drug dilutions. Plates were incubated at 37 °C and gassed with 93% N2, 4% CO2 and 3% O2 for 72 h. Following incubation, 10 × SYBR Green I (Invitrogen; supplied in 10,000 × concentration) in lysis buffer ([…], 5 mM EDTA, 0.16% Saponin wt per vol and 1.6% Triton X vol per vol) was added to the wells and the plates were incubated overnight at room temperature before plate reading. EC50 assays were repeated three times, taking the average EC50 value from each assay set, and removing any outliers using a single iteration of Grubbs' test, eliminating values with z-scores above the critical z-value (α=0.05). The raw EC50 values for synchronized parasites assayed in a 384-well format are listed in Supplementary Data 4. The raw EC50 values for asynchronous parasites assayed in a 96 or 1536-well format are listed in Supplementary Data 5.
as §6

[6] = system: ATQ-R4 (cytb M133I and L144S, parent 3D7); test: Cross-resistance EC50 assay, ATQ-R4; details: SYBR green 72 hour assay, asynchronized parasites, 96-well or 1536-well format
Text: as §1, with “set. […]” for “set.”
as §7, §6

[7] = system: ProRS (prolyl t-RNA synthetase L482H, parent Dd2); test: Cross-resistance EC50 assay, ProRS; details: SYBR green 72 hour assay; synchronized parasites; 384-well format; ProRS strain
Text: as §1, with “set. […]” for “set.”
as §7, §6

[8] = system: CYTb-G131S (cytb G131S, parent Dd2); test: Cross-resistance EC50 assay, CYTb-G131S; details: SYBR green 72 hour assay; synchronized parasites; 384-well format; CYTb:G131S strain
Text: as §1, with “set. […]” for “set.”
as §7, §6

[9] = system: CYTbQi (cytb G33A, parent Dd2); test: Cross-resistance EC50 assay, CYTbQi; details: SYBR green 72 hour assay; synchronized parasites; 384-well format; CYTbQi strain
Text: as §1, with “set. […]” for “set.”
as §7, §6

Dd2 = test: Cross-resistance EC50 assay, Dd2 parent; details: SYBR green 72 hour assay, Dd2 parent
Text: as §4
as §1, with “set. […]” for “set.”
as §7, §6

hsp90 (D88Y, parent Dd2) = test: Cross-resistance EC50 assay, hsp90; details: SYBR green 72 hour assay; synchronized parasites; 384-well format; HSP90 strain
Text: as §1, with “set. […]” for “set.”
as §7, §6

[10] = system: ATQ-R5 (cytb F267V, parent 3D7); test: Cross-resistance EC50 assay, ATQ-R5; details: SYBR green 72 hour assay, asynchronized parasites, 96-well or 1536-well format
Text: as §1, with “set. […]” for “set.”
as §7, §6

[11] = system: NITD609-R2 (PfATP4 T418N and P990R, parent Dd2); test: Cross-resistance EC50 assay, NITD609-R2; details: SYBR green 72 hour assay, asynchronized parasites, 96-well or 1536-well format
Text: as §1, with “set. […]” for “set.”
as §7, §6

[12] = system: GNF449-R2 (PfATP4 I203L and P990R, parent Dd2); test: Cross-resistance EC50 assay, GNF449-R2; details: SYBR green 72 hour assay, asynchronized parasites, 96-well or 1536-well format
Text: as §1, with “set. […]” for “set.”
as §7, §6

[13] = system: DHODH (E182D, parent 3D7); test: Cross-resistance EC50 assay, DHODH; details: SYBR green 72 hour assay; synchronized parasites; 384-well format; DHODH strain
Text: as §1, with “set. […]” for “set.”
as §7, §6

PfCRT-Q352R (parent Dd2) = test: Cross-resistance EC50 assay, PfCRT-Q352R; details: SYBR green 72 hour assay; synchronized parasites; 384-well format; PfCRT:Q352R strain
Text: as §1, with “set. […]” for “set.”
as §7, §6

SMILES: COc1ccc(NC(=O)N2CCCCN3[C@H](CO)[C@H](c4ccc(C#Cc5ccccc5)cc4)[C@@H]3C2)cc1 [BRD3444]
- PfATP4 Mut3 (3D7-C9-WT Parent) Average Hill Slope [1]: 1.97
- W2F6 (PARENT) Average Hill Slope (W2): 2.25
- 3D7 (PARENT) Average Hill Slope (3D7; hypoxanthine 48-hour assay, synchronized parasites, 96-well format, strain 3D7 (parent)): 1.47
- 3D7-C9-WT (PARENT) Average Hill Slope (3D7; hypoxanthine 48-hour assay, synchronized parasites, 96-well format, strain 3D7-C9-WT (parent of PfATP4 Mut3)): 1.43
- PfATP4 Mut1 (W2F6 Parent) Average Hill Slope [2]: 2.07
- TM90C2A (3D7 Parent) Average Hill Slope [3]: 1.64
- PfATP4 Mut2 (W2F6 Parent) Average Hill Slope [4]: 1.12

SMILES: COc1ccc(NC(=O)N2CCCCN3[C@H](CN)[C@H](c4ccc(C#Cc5ccccc5)cc4)[C@@H]3C2)cc1 [BRD1095]
- GNF156R (Dd2 Parent) Average Hill Slope [5]: 1.06
- ATQ-R4 (3D7 Parent) Average Hill Slope [6]: 1.04
- ProRS (Dd2 Parent) Average Hill Slope [7]: 5.26
- CYTb:G131S (Dd2 Parent) Average Hill Slope [8]: 7.39
- CYTbQi (Dd2 Parent) Average Hill Slope [9]: 5.92
- Dd2 (PARENT) Average Hill Slope (Dd2; asynchronized parasites, 96-well or 1536-well format): 1.89
- Dd2 (PARENT) Average Hill Slope (Dd2; synchronized parasites, 384-well format): 5.26
- HSP90 (Dd2 Parent) Average Hill Slope (hsp90 (D88Y, parent Dd2)): 5.26
- ATQ-R5 (3D7 Parent) Average Hill Slope [10]: 0.98
- 3D7 (PARENT) Average Hill Slope (3D7; SYBR green 72 hour assay, asynchronized parasites, 96-well or 1536-well format, 3D7 parent): 1.66
- 3D7 (PARENT) Average Hill Slope (3D7; SYBR green 72 hour assay, synchronized parasites, 384-well format, 3D7 parent): 7.84
- NITD609-R2 (Dd2 Parent) Average Hill Slope [11]: 1.64
- GNF449-R2 (Dd2 Parent) Average Hill Slope [12]: 1.25
- DHODH (3D7 Parent) Average Hill Slope [13]: 6.37
- PfCRT:Q352R (Dd2 Parent) Average Hill Slope (PfCRT-Q352R (parent Dd2)): 4.36
